Data: publication PMC8774046
These are yes or no findings as the source states them, for the method shown. Binding calls can cover weak binding; strength is not graded here. For some assays here: Tags and fused reporters may be left off the sequences shown. For some assays here: In cells and extracts the contact can be indirect. Blank lines part the entries; values can stand above or below the molecule they belong to.

By UniProt entry, the sequences of proteins in these tests, tags left out. Where a name states a change or a piece, a line headed by the entry shows the natural chain unless it says otherwise.
UniProt Q9FMI8: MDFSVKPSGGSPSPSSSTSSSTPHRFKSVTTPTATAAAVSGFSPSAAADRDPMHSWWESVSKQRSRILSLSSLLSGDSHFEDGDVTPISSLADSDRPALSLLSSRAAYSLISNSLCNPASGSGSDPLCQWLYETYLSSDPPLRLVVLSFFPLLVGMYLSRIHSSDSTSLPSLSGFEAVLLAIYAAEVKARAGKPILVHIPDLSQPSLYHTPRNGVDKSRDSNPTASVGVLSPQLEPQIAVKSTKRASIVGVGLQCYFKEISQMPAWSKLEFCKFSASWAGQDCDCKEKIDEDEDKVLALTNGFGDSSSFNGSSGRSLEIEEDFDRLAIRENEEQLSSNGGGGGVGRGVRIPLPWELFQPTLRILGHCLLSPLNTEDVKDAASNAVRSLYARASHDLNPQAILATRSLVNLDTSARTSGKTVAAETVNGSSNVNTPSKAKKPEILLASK

Columns and labels:
[1] = molecular target: T1, NPGR1 (pairwise yeast two-hybrid fusion) (Arabidopsis thaliana) (UniProt Q9CB03); assay: two-hybrid; pairwise; AD vectors (prey) in Y8800 and DB vectors (bait) in Y8930, mated; growth on SD-LTH, with 1 mM 3AT for strong interactions; CHX control for auto-activation
T1 sequence: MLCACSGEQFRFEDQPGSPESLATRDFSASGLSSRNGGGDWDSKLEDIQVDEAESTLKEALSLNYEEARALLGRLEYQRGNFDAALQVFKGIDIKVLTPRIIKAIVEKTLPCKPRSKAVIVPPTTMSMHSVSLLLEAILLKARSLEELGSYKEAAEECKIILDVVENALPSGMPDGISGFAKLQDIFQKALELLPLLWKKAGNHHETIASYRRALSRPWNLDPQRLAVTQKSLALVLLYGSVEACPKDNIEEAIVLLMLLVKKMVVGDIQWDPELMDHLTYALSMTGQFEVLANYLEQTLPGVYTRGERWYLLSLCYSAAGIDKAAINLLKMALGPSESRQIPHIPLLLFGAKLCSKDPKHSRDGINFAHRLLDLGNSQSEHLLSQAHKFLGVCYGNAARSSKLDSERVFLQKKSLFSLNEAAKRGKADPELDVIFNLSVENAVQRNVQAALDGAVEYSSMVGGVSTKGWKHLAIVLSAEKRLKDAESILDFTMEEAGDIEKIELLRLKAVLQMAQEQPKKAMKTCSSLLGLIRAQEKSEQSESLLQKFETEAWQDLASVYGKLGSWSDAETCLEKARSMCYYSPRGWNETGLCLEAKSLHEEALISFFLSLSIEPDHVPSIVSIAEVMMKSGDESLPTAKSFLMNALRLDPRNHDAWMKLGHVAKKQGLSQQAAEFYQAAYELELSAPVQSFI

[2] = molecular target: T2, NPG1 (pairwise yeast two-hybrid fusion) (Arabidopsis thaliana) (UniProt Q8GZN1); assay: as above
T2 sequence: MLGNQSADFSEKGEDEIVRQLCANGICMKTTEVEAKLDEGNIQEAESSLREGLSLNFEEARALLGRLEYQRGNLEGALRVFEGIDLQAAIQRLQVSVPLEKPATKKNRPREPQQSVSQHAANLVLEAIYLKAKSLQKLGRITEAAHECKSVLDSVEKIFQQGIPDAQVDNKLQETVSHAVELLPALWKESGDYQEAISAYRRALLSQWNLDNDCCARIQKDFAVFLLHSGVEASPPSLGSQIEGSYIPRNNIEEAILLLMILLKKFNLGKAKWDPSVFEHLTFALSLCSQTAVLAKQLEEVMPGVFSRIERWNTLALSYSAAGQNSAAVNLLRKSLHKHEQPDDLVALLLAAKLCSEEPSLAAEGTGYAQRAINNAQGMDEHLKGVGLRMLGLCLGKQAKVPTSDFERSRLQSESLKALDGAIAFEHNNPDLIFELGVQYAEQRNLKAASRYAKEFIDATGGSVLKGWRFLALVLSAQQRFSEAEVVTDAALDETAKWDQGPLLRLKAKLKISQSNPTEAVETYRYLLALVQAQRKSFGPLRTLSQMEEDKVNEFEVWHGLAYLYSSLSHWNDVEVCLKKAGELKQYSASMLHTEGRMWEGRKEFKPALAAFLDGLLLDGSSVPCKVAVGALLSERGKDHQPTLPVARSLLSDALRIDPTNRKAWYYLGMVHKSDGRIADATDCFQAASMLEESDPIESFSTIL

[3] = molecular target: T3, NPGR2 (pairwise yeast two-hybrid fusion) (Arabidopsis thaliana) (UniProt Q66GN3); assay: as above
T3 sequence: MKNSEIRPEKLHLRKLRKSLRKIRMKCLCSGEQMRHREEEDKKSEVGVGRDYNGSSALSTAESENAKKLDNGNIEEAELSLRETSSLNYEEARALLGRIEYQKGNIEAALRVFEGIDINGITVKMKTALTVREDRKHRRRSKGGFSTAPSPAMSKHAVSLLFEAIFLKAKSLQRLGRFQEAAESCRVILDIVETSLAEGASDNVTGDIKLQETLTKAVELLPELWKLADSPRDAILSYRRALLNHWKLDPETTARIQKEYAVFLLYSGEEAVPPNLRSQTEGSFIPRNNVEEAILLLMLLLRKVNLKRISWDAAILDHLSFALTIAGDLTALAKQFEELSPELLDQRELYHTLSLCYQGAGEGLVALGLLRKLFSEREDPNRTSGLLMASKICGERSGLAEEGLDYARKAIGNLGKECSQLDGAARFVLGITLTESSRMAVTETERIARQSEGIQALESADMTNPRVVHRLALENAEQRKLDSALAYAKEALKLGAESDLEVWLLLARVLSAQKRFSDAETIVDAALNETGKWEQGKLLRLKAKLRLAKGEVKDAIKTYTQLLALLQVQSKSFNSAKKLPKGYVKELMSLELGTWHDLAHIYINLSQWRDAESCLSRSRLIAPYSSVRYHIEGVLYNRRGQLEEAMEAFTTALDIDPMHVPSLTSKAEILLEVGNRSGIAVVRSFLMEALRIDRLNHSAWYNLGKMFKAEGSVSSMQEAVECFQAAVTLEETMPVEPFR

[4] = molecular target: HYC2–mCITRINE (Arabidopsis thaliana); assay: co-IP; leaf tissue of Arabidopsis transgenic lines; proteins fused to mCITRINE immunoprecipitated with Miltenyi µMacs anti-GFP; immunoblot with anti-PI4Kα1, anti-NPGR2 and anti-GFP

binding [1]: binds
binding [2]: binds
binding [3]: binds
Molecule: HYC2 (pairwise yeast two-hybrid fusion) (from UniProt Q9FMI8)

binding [2]: binds
Molecule: HYC1 (pairwise yeast two-hybrid fusion) (from UniProt Q3E983)

binding [4]: binds
B1: NPGR2 (endogenous) (protein, UniProt Q66GN3 1-739)
chain: T3 sequence
